First the molecules themselves.
T1: recombinant flagellar hook protein FlgE of Pseudomonas aeruginosa PAO1 (Pseudomonas aeruginosa PAO1) (UniProt Q9I4P9)
T1 sequence: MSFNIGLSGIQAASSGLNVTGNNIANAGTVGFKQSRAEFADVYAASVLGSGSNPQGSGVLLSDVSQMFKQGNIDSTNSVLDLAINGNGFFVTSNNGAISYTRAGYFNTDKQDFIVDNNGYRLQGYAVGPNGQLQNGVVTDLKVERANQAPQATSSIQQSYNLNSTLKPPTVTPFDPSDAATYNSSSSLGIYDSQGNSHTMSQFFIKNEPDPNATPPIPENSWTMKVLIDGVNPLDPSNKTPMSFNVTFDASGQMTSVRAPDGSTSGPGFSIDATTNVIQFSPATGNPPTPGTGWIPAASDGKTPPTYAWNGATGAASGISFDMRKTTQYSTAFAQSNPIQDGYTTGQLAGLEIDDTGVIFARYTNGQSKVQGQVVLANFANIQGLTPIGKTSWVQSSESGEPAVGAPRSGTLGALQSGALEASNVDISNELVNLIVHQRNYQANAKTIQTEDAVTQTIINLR

By UniProt entry, the sequences of proteins in these tests, tags left out. Residues count along the entry.
UniProt P25705, residues 44-553: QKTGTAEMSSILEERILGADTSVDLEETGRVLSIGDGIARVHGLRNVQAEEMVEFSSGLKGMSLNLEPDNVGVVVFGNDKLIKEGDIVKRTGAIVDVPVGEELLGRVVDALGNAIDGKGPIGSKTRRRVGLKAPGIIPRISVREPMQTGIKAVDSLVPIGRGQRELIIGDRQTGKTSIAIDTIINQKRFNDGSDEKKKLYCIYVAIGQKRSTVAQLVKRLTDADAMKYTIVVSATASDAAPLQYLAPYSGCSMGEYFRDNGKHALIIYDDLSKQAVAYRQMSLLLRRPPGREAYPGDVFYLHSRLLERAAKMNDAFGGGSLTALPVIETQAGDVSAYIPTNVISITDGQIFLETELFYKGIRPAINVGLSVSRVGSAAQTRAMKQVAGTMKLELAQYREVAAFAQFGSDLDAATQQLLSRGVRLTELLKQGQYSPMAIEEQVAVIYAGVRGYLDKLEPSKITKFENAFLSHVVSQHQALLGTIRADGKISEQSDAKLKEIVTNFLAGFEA
UniProt Q03135: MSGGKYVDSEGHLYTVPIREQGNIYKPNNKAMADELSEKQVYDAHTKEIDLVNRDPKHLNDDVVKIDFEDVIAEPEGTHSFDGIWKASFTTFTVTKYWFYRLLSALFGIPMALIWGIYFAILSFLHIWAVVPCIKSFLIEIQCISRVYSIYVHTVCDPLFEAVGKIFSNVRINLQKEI
UniProt P35908: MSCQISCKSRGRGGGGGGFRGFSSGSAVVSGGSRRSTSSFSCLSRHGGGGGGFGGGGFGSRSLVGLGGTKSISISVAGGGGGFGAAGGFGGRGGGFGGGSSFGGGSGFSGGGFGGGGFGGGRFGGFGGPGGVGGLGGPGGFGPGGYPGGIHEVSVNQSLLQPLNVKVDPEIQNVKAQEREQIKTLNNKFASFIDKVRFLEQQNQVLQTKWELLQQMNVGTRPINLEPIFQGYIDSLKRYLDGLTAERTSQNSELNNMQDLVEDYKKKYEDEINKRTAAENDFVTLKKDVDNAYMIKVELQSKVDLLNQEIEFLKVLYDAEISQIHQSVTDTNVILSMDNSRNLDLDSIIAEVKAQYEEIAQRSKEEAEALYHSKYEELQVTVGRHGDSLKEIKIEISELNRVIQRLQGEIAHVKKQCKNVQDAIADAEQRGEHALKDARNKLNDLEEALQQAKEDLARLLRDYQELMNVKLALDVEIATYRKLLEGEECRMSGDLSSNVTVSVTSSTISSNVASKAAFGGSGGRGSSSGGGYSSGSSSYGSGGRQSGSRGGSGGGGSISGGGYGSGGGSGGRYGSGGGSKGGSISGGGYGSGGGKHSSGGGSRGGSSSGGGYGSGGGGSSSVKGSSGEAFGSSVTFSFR
UniProt P51148: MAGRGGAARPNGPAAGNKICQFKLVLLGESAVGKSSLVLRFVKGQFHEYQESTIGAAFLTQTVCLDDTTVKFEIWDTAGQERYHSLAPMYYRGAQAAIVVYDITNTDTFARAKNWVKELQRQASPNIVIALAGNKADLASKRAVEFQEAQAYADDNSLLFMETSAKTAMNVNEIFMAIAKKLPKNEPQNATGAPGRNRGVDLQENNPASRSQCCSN
UniProt P61019: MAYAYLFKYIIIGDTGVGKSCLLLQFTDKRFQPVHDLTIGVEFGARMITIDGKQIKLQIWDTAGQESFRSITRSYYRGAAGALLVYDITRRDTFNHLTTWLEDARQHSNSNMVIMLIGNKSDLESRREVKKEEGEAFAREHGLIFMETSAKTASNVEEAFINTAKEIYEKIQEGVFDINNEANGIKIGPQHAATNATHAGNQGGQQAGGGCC
UniProt P20339: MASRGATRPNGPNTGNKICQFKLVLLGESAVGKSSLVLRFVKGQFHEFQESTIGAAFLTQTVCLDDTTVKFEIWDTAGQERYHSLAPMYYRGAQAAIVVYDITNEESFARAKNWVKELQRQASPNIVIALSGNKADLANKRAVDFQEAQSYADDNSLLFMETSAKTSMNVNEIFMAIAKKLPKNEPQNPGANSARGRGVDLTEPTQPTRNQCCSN
UniProt P20340: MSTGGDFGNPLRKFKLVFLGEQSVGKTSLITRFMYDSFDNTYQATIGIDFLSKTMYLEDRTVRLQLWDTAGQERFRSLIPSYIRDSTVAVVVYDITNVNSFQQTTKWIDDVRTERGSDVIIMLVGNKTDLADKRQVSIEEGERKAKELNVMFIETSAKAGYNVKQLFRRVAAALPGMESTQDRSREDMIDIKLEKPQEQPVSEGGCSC
UniProt P05067, residues 18-770: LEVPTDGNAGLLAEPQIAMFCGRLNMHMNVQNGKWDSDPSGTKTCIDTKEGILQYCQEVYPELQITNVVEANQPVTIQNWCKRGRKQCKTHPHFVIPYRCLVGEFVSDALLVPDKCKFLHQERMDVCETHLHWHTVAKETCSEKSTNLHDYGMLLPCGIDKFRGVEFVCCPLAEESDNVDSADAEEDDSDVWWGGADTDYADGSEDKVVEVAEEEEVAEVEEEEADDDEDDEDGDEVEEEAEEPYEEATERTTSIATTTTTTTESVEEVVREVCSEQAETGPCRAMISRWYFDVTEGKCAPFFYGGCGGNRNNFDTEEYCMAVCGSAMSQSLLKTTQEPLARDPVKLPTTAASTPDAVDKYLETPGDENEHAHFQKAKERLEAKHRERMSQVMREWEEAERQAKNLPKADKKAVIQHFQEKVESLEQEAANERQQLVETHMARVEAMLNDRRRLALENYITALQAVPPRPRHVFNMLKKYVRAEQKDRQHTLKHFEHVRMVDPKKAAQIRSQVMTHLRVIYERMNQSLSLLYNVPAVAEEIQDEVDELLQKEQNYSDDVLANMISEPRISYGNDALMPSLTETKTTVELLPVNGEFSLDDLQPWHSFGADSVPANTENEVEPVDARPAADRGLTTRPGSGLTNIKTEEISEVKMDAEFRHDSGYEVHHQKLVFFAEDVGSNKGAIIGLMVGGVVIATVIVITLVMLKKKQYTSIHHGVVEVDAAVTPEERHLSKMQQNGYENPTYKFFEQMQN

B1: Cytokeratin 9 (protein, UniProt P35527 1-623)
chain: MSCRQFSSSYLSRSGGGGGGGLGSGGSIRSSYSRFSSSGGGGGGGRFSSSSGYGGGSSRVCGRGGGGSFGYSYGGGSGGGFSASSLGGGFGGGSRGFGGASGGGYSSSGGFGGGFGGGSGGGFGGGYGSGFGGFGGFGGGAGGGDGGILTANEKSTMQELNSRLASYLDKVQALEEANNDLENKIQDWYDKKGPAAIQKNYSPYYNTIDDLKDQIVDLTVGNNKTLLDIDNTRMTLDDFRIKFEMEQNLRQGVDADINGLRQVLDNLTMEKSDLEMQYETLQEELMALKKNHKEEMSQLTGQNSGDVNVEINVAPGKDLTKTLNDMRQEYEQLIAKNRKDIENQYETQITQIEHEVSSSGQEVQSSAKEVTQLRHGVQELEIELQSQLSKKAALEKSLEDTKNRYCGQLQMIQEQISNLEAQITDVRQEIECQNQEYSLLLSIKMRLEKEIETYHNLLEGGQEDFESSGAGKIGLGGRGGSGGSYGRGSRGGSGGSYGGGGSGGGYGGGSGSRGGSGGSYGGGSGSGGGSGGGYGGGSGGGHSGGSGGGHSGGSGGNYGGGSGSGGGSGGGYGGGSGSRGGSGGSHGGGSGFGGESGGSYGGGEEASGSGGGYGGGSGKSSHS
B2: ATP synthase subunit O, mitochondrial precursor (protein, UniProt P48047 24-213)
chain: FAKLVRPPVQVYGIEGRYATALYSAASKQNKLEQVEKELLRVAQILKEPKVAASVLNPYVKRSIKVKSLNDITAKERFSPLTTNLINLLAENGRLSNTQGVVSAFSTMMSVHRGEVPCTVTSASPLEEATLSELKTVLKSFLSQGQVLKLEAKTDPSILGGMIVRIGEKYVDMSVKTKIQKLGRAMREIV
B3: Ras family small GTP binding protein RALA (protein, UniProt P11233 1-206)
chain: MAANKPKGQNSLALHKVIMVGSGGVGKSALTLQFMYDEFVEDYEPTKADSYRKKVVLDGEEVQIDILDTAGQEDYAAIRDNYFRSGEGFLCVFSITEMESFAATADFREQILRVKEDENVPFLLVGNKSDLEDKRQVSVEEAKNRAEQWNVNYVETSAKTRANVDKVFFDLMREIRARKMEDSKEKNGKKKRKSLAKRIRERCCIL
B4: Ras-related protein Rab-5B isoform 1 (protein, UniProt P61020 1-215)
chain: MTSRSTARPNGQPQASKICQFKLVLLGESAVGKSSLVLRFVKGQFHEYQESTIGAAFLTQSVCLDDTTVKFEIWDTAGQERYHSLAPMYYRGAQAAIVVYDITNQETFARAKTWVKELQRQASPSIVIALAGNKADLANKRMVEYEEAQAYADDNSLLFMETSAKTAMNVNDLFLAIAKKLPKSEPQNLGGAAGRSRGVDLHEQSQQNKSQCCSN
B5: human hydroxysteroid sulfotransferase (protein, UniProt Q06520 1-285)
chain: MSDDFLWFEGIAFPTMGFRSETLRKVRDEFVIRDEDVIILTYPKSGTNWLAEILCLMHSKGDAKWIQSVPIWERSPWVESEIGYTALSETESPRLFSSHLPIQLFPKSFFSSKAKVIYLMRNPRDVLVSGYFFWKNMKFIKKPKSWEEYFEWFCQGTVLYGSWFDHIHGWMPMREEKNFLLLSYEELKQDTGRTIEKICQFLGKTLEPEELNLILKNSSFQSMKENKMSNYSLLSVDYVVDKAQLLRKGVSGDWKNHFTVAQAEDFDKLFQEKMADLPRELFPWE
B6: Ras-related protein Ral-B (protein, UniProt P11234 1-206)
chain: MAANKSKGQSSLALHKVIMVGSGGVGKSALTLQFMYDEFVEDYEPTKADSYRKKVVLDGEEVQIDILDTAGQEDYAAIRDNYFRSGEGFLLVFSITEHESFTATAEFREQILRVKAEEDKIPLLVVGNKSDLEERRQVPVEEARSKAEEWGVQYVETSAKTRANVDKVFFDLMREIRTKKMSENKDKNGKKSSKNKKSFKERCCLL

Results are given in words; binding and its absence hold for the method and conditions named. Binding seen in cells or lysates may run through a third protein. These calls come from enrichment with a bait or labelling near it, and not all partners need be listed. Where a sequence is shown, tags or fusion partners need not be part of it.

The target in the test is T1, recombinant flagellar hook protein FlgE of Pseudomonas aeruginosa PAO1 (Pseudomonas aeruginosa PAO1). Description: affinity purification with mass spectrometry; 500 μg purified His-tagged FlgE held on 100 μL His-agarose (nickel) beads; total membrane proteins of ~10^8 HCECs incubated in 300 μL PBS at 4 °C for 8 h; five PBS washes; eluted with 0.2 M glycine-HCl; six SDS-PAGE bands differing from the empty-bead control cut, trypsin, nano-LC-MS/MS, MASCOT score >= 114; only the target purified.
On to “ATP synthase subunit alpha, mitochondrial isoform a precursor (from UniProt P25705 44-553)”, for which the binding entry was “binds”.
On to “ATP synthase subunit beta, mitochondrial precursor (from UniProt P06576 48-529)”, for which the binding result is listed as “binds”.
With Caveolin-1 (from UniProt Q03135 1-178), the binding entry is given as “binds”.
In the case of “Epidermal cytokeratin 2 (from UniProt P35908 1-639)”, the binding result is “binds”.
Then “Rab5c-like protein, similar to Canis familiaris Rab5c protein (from UniProt P51148 1-216)”, with “binds”; and “Ras-related protein Rab-2A isoform a (from UniProt P61019 1-212)”, with “binds”; and “Ras-related protein Rab-5A (from UniProt P20339 1-215)”, with “binds”.
Take “Ras-related protein Rab-6A isoform a (from UniProt P20340 1-208)”: the binding result is reported as “binds”.
With “amyloid preprotein (App) (from UniProt P05067 18-770)”, the binding entry was “binds”.
Regarding B1, the binding result is reported as “binds”.
With B2, the binding result is “binds”.
Turning to B3, the binding entry was “binds”.
With B4, the binding entry is recorded as “binds”.
As for B5, the binding entry is “binds”.
In the case of B6, the binding entry was “binds”.

Source of the values: article PMC5431167.
